Assay results reported in paper PMC7819943, “Rice protein-binding microarrays: a tool to detect cis-acting elements near promoter regions in rice”.
Some of the results follow.

Biological target: T1, OsSMF1 (Oryza sativa, UniProt Q6ZLB0 1-436)
T1 sequence: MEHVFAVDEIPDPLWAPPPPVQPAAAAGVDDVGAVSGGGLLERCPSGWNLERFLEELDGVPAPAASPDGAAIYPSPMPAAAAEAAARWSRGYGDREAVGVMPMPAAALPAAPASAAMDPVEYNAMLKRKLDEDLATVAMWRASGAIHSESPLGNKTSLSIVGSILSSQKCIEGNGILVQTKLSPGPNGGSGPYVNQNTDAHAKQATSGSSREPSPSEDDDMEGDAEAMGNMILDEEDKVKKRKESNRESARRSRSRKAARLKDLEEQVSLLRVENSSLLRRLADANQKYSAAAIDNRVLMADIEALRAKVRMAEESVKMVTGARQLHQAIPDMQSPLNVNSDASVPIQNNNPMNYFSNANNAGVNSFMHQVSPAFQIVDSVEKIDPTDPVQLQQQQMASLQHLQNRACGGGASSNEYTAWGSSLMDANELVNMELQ
Experiment: protein-binding microarray (RPBM); PBS, 2% BSA, 51.3 ng/ul salmon testes DNA, 50 uM zinc acetate, 200 nM TF, 25 C, 1 h; high values mean tight binding
Conditions: protein: recombinant; tags: N-terminal polyhistidine and DsRed monomer fusion (pET32a); chain copies: 2; label: CyDye5-dUTP incorporated in the synthesized complementary strand; 3' TTTTT single-stranded linker to array surface; dsDNA, one strand shown
In short: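 Binding signal here means per-feature fluorescence intensity in arbitrary units. The values were read on an Axon 4000B scanner after a custom Agilent array, double-stranded by primer extension with Cy5-dUTP, was incubated with 200 nM protein at 25 °C for 1 h in PBS with 2% BSA, salmon testes DNA and 50 µM zinc acetate, then washed. The proteins were transcription factors with an N-terminal polyhistidine tag and DsRed, expressed in E. coli BL21-CodonPlus and purified on Ni–NTA.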

Sequence | binding signal
AAGGATTGCTATGATTCATATTTGTCACCGTGGGTACCAGCGGAGTCACCTAGTGCAG | 4150 fluorescence intensity (a.u.)
CCTGAACACCCTACTCCGCATTTAGACAATGCCGTTAAATCGGAGTCACCTAGTGCAG | 3490 fluorescence intensity (a.u.)
GGGATGATTTGTCTGGTGGAATCTAAGGCCTCCATAAATGCGGAGTCACCTAGTGCAG | 3170 fluorescence intensity (a.u.)
TAAACCTGCGGGTTCATGTGTCGTGGTCTAACTTACTGTACGGAGTCACCTAGTGCAG | 3140 fluorescence intensity (a.u.)
AGGGAGGAGGGTGGGTGGTGCCAACACGTCAGGCTGAATTCGGAGTCACCTAGTGCAG | 10100 fluorescence intensity (a.u.)
TGTGTATCCGGCCGTGTCACGTGAAGCCCGGTACGGCCCCCGGAGTCACCTAGTGCAG | 6950 fluorescence intensity (a.u.)
ACCTACGTCTGCACAATTGTTGCACACGCAGATCCAGCACCGGAGTCACCTAGTGCAG | 20100 fluorescence intensity (a.u.)
GGCAGATGTGGACGGAGGGAGGGAGGGAGGGAGAGGGGCACGGAGTCACCTAGTGCAG | 3740 fluorescence intensity (a.u.)
TCTCCCCAGATTTCCCCTTCCATTCCGCCTCCCGATCGCTCGGAGTCACCTAGTGCAG | 43300 fluorescence intensity (a.u.)
GGTGGTGGTGGTGGTGGTGGTGGCCGCCGGTGGTGATTGGCGGAGTCACCTAGTGCAG | 4600 fluorescence intensity (a.u.)
TACCTGTGACGGGCAATCGAAATGGTCACTGATGACCGTCCGGAGTCACCTAGTGCAG | 3550 fluorescence intensity (a.u.)
GTTAGGCAGGACCCTTGACGCGGACTATGACGACGTGGCCCGGAGTCACCTAGTGCAG | 9600 fluorescence intensity (a.u.)
AGTTTGGCCCCATCAACGTTGATGACGTCGGCTATGGCCTCGGAGTCACCTAGTGCAG | 7280 fluorescence intensity (a.u.)
CTGACCTGTGCCTCCACGTGACGTTAGTGGGGCTTTTGTCCGGAGTCACCTAGTGCAG | 5970 fluorescence intensity (a.u.)
CAGGCAGGCTGCTTAATATCAAGGATAGTCATTTGTCAGCCGGAGTCACCTAGTGCAG | 19800 fluorescence intensity (a.u.)
TACCCCATCACCAACCTGGATTTGGTGGCATGGGTGGGGTCGGAGTCACCTAGTGCAG | 4190 fluorescence intensity (a.u.)
ATCAATTAATCATGAGCTAATGACTCACTTCGTTTTACGTCGGAGTCACCTAGTGCAG | 6260 fluorescence intensity (a.u.)
CTTCTCCTAGCCTCCTTGTGTTAGTGCACATGTCATTCGGCGGAGTCACCTAGTGCAG | 4200 fluorescence intensity (a.u.)
TTTACTGATCTTTACCTCAGTCAGCGTTGTGTGTTAGGTTCGGAGTCACCTAGTGCAG | 3540 fluorescence intensity (a.u.)
CTGGGGAGGGCGACGGCGCAGTGCGGGGTGGACGGGAGCGCGGAGTCACCTAGTGCAG | 3480 fluorescence intensity (a.u.)
CAGAAATATATATATGGTGGCCACATTGCATAAAAGTATACGGAGTCACCTAGTGCAG | 5660 fluorescence intensity (a.u.)

Sequence | binding signal
CAACAAATCCGACATGTCATTCTCACCCCTCTTCTTCCTCCGGAGTCACCTAGTGCAG | 6150 fluorescence intensity (a.u.)
TCATTACTCAACGTGCTGCAGAGCGTGGTGGCAGCCCTGGCGGAGTCACCTAGTGCAG | 3550 fluorescence intensity (a.u.)
AGACTATACTATTGAACTTGCTCTAATAGTCTGCTATTGTCGGAGTCACCTAGTGCAG | 7810 fluorescence intensity (a.u.)
TCTAAAATTTATCGAATTTTGGAACGATGTGCGTGTGCAACGGAGTCACCTAGTGCAG | 23200 fluorescence intensity (a.u.)
ATAAAGTATACTACGAGCGATGACGCAGTACAGAATAGGACGGAGTCACCTAGTGCAG | 4260 fluorescence intensity (a.u.)
CCAACAGCGACCGGTGACGTGTCCCGTGTGCCCAACTTATCGGAGTCACCTAGTGCAG | 22600 fluorescence intensity (a.u.)
TCCATTTGATAACTCCATACGGCGAATGACGAATTAACCCCGGAGTCACCTAGTGCAG | 3420 fluorescence intensity (a.u.)
GACCAGCACATCAGTTGATGACGATGTCTCTATTGTTATTCGGAGTCACCTAGTGCAG | 6330 fluorescence intensity (a.u.)
CCACGGAGAACCACTTGCCATCCCTCTTGATCTGCAGACCCGGAGTCACCTAGTGCAG | 3450 fluorescence intensity (a.u.)
CTTCGCTTGATCGATCCCATCAAAGAGTGACGGAGGTGGTCGGAGTCACCTAGTGCAG | 12200 fluorescence intensity (a.u.)
TAACATTTTGAATCAGGCGTAACACTTGTTTGGATTGCTTCGGAGTCACCTAGTGCAG | 35600 fluorescence intensity (a.u.)
TATAGTCAAAATTACTTTTCTAATGTGATAGACTGATAGTCGGAGTCACCTAGTGCAG | 4350 fluorescence intensity (a.u.)
GCGCCGACTCACTCCACCACCTCATCTCATCAGCTGCCTCCGGAGTCACCTAGTGCAG | 5320 fluorescence intensity (a.u.)
GTCAAGGACGCATCACACATGGCGTGTCTCTCTGCCTTGCCGGAGTCACCTAGTGCAG | 4050 fluorescence intensity (a.u.)
CTGGCACATCGGCGAGCAGCACGACACGTTGGCGCACGTCCGGAGTCACCTAGTGCAG | 6440 fluorescence intensity (a.u.)
TGATGATGGCCATGGCGGCCATGATCGTCATCAGCTGCTCCGGAGTCACCTAGTGCAG | 3460 fluorescence intensity (a.u.)
GGTATTCATCTAATGTCTCGAGGCCACACGTCAAGACTGACGGAGTCACCTAGTGCAG | 3820 fluorescence intensity (a.u.)
TCTAGCCAAGGGTCACGATCTCCACGAATTTCGACCATCTCGGAGTCACCTAGTGCAG | 3260 fluorescence intensity (a.u.)
CGTGCCGCTGCCGTCGCGCACTGCCCGTTGACGCACGCCTCGGAGTCACCTAGTGCAG | 3800 fluorescence intensity (a.u.)
TTCACGGCAACCTCTCGGAGCGTGGTCGCAGCAACGGCCGCGGAGTCACCTAGTGCAG | 21900 fluorescence intensity (a.u.)
TTTAATCTAATGGACCTGATCTAATTATACTTCCACGTCACGGAGTCACCTAGTGCAG | 11700 fluorescence intensity (a.u.)

3 entries drawn at random from those above, as already listed:
Sequence | binding signal
TTTAATCTAATGGACCTGATCTAATTATACTTCCACGTCACGGAGTCACCTAGTGCAG | 11700 fluorescence intensity (a.u.)
GACCAGCACATCAGTTGATGACGATGTCTCTATTGTTATTCGGAGTCACCTAGTGCAG | 6330 fluorescence intensity (a.u.)
GTCAAGGACGCATCACACATGGCGTGTCTCTCTGCCTTGCCGGAGTCACCTAGTGCAG | 4050 fluorescence intensity (a.u.)
